Source: publication PMC10786907
No constants are given. Whether binding was seen depends on the method and setting. Binding seen in cells or lysates may run through a third protein. A yes stands for co-enrichment or nearness to the bait. Other partners may have been found. Sequences can lack the tags named with a protein.

Target: T1, Flag-FBXO31 (UniProt Q5XUX0)
T1 sequence: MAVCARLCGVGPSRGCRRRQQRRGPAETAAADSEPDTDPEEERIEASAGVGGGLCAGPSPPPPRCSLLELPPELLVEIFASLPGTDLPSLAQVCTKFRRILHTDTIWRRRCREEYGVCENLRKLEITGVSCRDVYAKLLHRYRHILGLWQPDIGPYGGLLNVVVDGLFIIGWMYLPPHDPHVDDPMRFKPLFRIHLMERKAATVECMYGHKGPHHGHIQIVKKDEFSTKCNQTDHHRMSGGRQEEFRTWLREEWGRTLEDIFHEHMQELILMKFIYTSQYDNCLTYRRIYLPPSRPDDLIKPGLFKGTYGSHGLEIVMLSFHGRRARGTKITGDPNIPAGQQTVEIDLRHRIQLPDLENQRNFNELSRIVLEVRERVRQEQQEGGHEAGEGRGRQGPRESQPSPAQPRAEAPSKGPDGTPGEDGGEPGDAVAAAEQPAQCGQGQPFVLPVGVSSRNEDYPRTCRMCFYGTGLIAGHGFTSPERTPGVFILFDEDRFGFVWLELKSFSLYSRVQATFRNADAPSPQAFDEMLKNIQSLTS
Assay: affinity purification with mass spectrometry; HEK293T cells transfected with Flag-FBXO31 or EV; Flag magnetic beads; band excised from a Coomassie-stained SDS-PAGE gel; LC-MS/MS, Mascot 2.2

B1: SIRT2 (endogenous, 293T cells) (protein, UniProt Q8IXJ6 1-389)
chain: MAEPDPSHPLETQAGKVQEAQDSDSDSEGGAAGGEADMDFLRNLFSQTLSLGSQKERLLDELTLEGVARYMQSERCRRVICLVGAGISTSAGIPDFRSPSTGLYDNLEKYHLPYPEAIFEISYFKKHPEPFFALAKELYPGQFKPTICHYFMRLLKDKGLLLRCYTQNIDTLERIAGLEQEDLVEAHGTFYTSHCVSASCRHEYPLSWMKEKIFSEVTPKCEDCQSLVKPDIVFFGESLPARFFSCMQSDFLKVDLLLVMGTSLQVQPFASLISKAPLSTPRLLINKEKAGQSDPFLGMIMGLGGGMDFDSKKAYRDVAWLGECDQGCLALAELLGWKKELEDLVRREHASIDAQSGAGVPNPSTSASPKKSPPPAKDEARTTEREKPQ
  binding: binds
